Source: patent US7214792B2 (priority 1999, dated 2007)
For at least one compound, name, drawing or mass did not settle the structure.

System: LAB-1
Test: Antibiotic sensitivity testing of LAB-1
Type: cell-based
Settings: LAB-1 organism
Experimental: A variety of biochemical tests were performed in order to identify the species and the genus of organism. The tests included: assessment of growth conditions, culture appearance, cell appearance and staining characteristics, optimal temperature and pH growth range, oxygen requirements, antibiotic sensitivity testing, tests for catalase and oxidase (using TAXOS N ? disks), amino acid utilization as carbon source, nitrogen fixation, motility test, and a variety of commercially available tests from MICRO-ID ? , OXYFERM ? , ENTEROTUBE ? and BIOLOG GN MICROPLATE ? .

CN(C)[C@@H]1C(O)=C(C(N)=O)C(=O)[C@@]2(O)C(O)=C3C(=O)c4c(O)cccc4[C@@](C)(O)[C@H]3C[C@@H]12 [Tetracycline]
Antibiotic Susceptibility Results: sensitive
